Data on 86 sequences can be found in the supplement of paper PMC3334620.

Over roughly 33,000 sequences, “E-score (-0.5 to 0.5)” has its median near -0.0014; the highest 2% begin near 0.25. Some of the results follow.

The target of this experiment is T1, Cad1 (UniProt P24813).
T1 sequence: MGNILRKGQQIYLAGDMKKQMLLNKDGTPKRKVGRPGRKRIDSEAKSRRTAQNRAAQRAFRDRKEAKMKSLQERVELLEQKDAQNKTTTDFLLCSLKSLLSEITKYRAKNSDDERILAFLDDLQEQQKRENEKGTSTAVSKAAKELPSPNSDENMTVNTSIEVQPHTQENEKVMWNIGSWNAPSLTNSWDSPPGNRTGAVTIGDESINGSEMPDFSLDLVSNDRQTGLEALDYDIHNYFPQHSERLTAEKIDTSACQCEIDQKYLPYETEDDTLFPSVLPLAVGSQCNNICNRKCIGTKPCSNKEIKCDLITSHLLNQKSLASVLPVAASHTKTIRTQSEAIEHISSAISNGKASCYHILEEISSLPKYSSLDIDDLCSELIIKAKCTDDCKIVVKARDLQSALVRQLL
The experiment can be described thus: PBM E-score (8-mer binding enrichment) (E-score (-0.5 to 0.5)); higher = stronger / more preferred TF binding. The note with it: protein concentration: 100 nM; construct: GST-full length. Summed up:
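Each ungapped eight-base word and its reverse complement, pooled, received an E-score from the Universal PBM Analysis Suite. Underlying scans, normalised with masliner, recorded fluorescent anti-GST bound to GST-tagged yeast transcription factors. These were applied at about 100-200 nM to universal all-10-mer Agilent arrays double-stranded by primer extension.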
Consider GGAGGACC, for which the “PBM E-score” value is -0.28.

In the case of TCGCTAAA, the “PBM E-score” value is 0.0566.

With CACTCACA, the “PBM E-score” value came to 0.0496.

As for AGGTCCAT, the “PBM E-score” value is -0.0267.

Turning to ACTGTTCA, the “PBM E-score” value was -0.0756.

Consider CACCGTCC, for which the “PBM E-score” value amounted to 0.0473.

As to AATCGCCG, the “PBM E-score” value amounted to 0.0454.

As to GCCGGTGA, the “PBM E-score” value came to 0.058.

Turning to CGATATCA, the “PBM E-score” value was 0.184.

Regarding AGGCCGCA, the “PBM E-score” value is -0.00988.

As to ATTATATA, the “PBM E-score” value is 0.306.

Take CCGACACA: the “PBM E-score” value was found to be 0.0345.

As to AGATAAAA, the “PBM E-score” value amounted to 0.161.

AATTTCGT: the “PBM E-score” value amounted to 0.131.

With AGTAACGA, the “PBM E-score” value came out at 0.0284.

With GACACATA, the “PBM E-score” value amounted to 0.127.

In the case of AGGAACTC, the “PBM E-score” value came out at 0.111.

In the case of CGCTTGAG, the “PBM E-score” value is -0.0753.

On to AAGCGACA, for which the “PBM E-score” value was found to be 0.0768.

Consider AAGGTAGT, for which the “PBM E-score” value was determined as 0.0321.

Regarding AACGCAGC, the “PBM E-score” value worked out at 0.167.

ACTCATCC: the “PBM E-score” value was determined as 0.119.

Take GCTACGAA: the “PBM E-score” value was 0.00936.

As to ATGATTGG, the “PBM E-score” value was -0.0266.

AAACAGCC: the “PBM E-score” value was -0.233.

As to AGCCTGAC, the “PBM E-score” value was -0.198.

As for GCATGTAA, the “PBM E-score” value is -0.0688.

Turning to ATCAGGCA, the “PBM E-score” value is -0.00079.

In the case of ACCTCTCT, the “PBM E-score” value is -0.179.

Turning to AAAGCGTA, the “PBM E-score” value was -0.0921.

Take GCACGATA: the “PBM E-score” value is 0.0573.

As for ACTAAAGC, the “PBM E-score” value worked out at 0.175.

GACCCACC: the “PBM E-score” value is -0.178.

With AACGCTCC, the “PBM E-score” value was -0.0134.

Consider GATACCCA, for which the “PBM E-score” value stood at 0.122.

In the case of CAATCTGG, the “PBM E-score” value is -0.00447.

Regarding CACATTAA, the “PBM E-score” value came to 0.0879.

Consider TAGATCAA, for which the “PBM E-score” value amounted to 0.0586.

As for AAAGTGAT, the “PBM E-score” value is -0.0108.

In the case of CCCCATGA, the “PBM E-score” value was -0.121.

As to GGACTCCA, the “PBM E-score” value is -0.137.

Regarding AGAAAACG, the “PBM E-score” value is 0.0068.

As to ACCATCCA, the “PBM E-score” value was -0.0249.

For CCATCAAG, the “PBM E-score” value is -0.109.

In the case of GGCAAACC, the “PBM E-score” value was -0.125.

Turning to AGCGTTCA, the “PBM E-score” value is -0.209.

TAACCTCA: the “PBM E-score” value is -0.0309.

GCGGTGAA: the “PBM E-score” value is 0.0529.

For AAATCTGA, the “PBM E-score” value is 0.116.

Regarding AGCTATGA, the “PBM E-score” value is -0.043.

On to CATCGGAC, for which the “PBM E-score” value was -0.0526.

As to ATTAAGCG, the “PBM E-score” value was 0.152.

CCTGGGCA: the “PBM E-score” value is -0.275.

In the case of ACGTCTAT, the “PBM E-score” value was -0.155.

CGTCCGGA: the “PBM E-score” value came out at 0.099.

Turning to CACGTATA, the “PBM E-score” value was -0.00072.

Regarding CATACCTC, the “PBM E-score” value was -0.0139.

CGAGTGAG: the “PBM E-score” value was found to be 0.135.

GTCTTCGA: the “PBM E-score” value was -0.0588.

For the sequence ACCTGTGC, the “PBM E-score” value was -0.0872.

Take GGTTGCTA: the “PBM E-score” value is -0.176.

GCGTCATA: the “PBM E-score” value is 0.0658.

Regarding AGAACACT, the “PBM E-score” value was determined as 0.126.

With CTACCAAA, the “PBM E-score” value turned out to be 0.0183.

With TCTCCAGA, the “PBM E-score” value is -0.204.

Turning to AAGAGTGA, the “PBM E-score” value amounted to 0.0401.

Turning to CTCCCAAC, the “PBM E-score” value is -0.196.

Take ACTCAGCA: the “PBM E-score” value was 0.185.

Turning to CTCGTCGC, the “PBM E-score” value was -0.0392.

As to AGGTCAAA, the “PBM E-score” value is -0.195.

Take GACTGGGA: the “PBM E-score” value is -0.113.

With ATAGCGAG, the “PBM E-score” value is 0.0707.

For GACAGGGC, the “PBM E-score” value was -0.117.

For the sequence ACCCTGCT, the “PBM E-score” value is -0.279.

As for CGTCGACA, the “PBM E-score” value was found to be 0.0742.

Regarding GACAAGCC, the “PBM E-score” value was -0.0138.

Consider ACTCTCAG, for which the “PBM E-score” value is -0.0475.

As for CCATGAGC, the “PBM E-score” value came to 0.00289.

Turning to CTCCGAAC, the “PBM E-score” value is 0.0184.

With ATGTGTTG, the “PBM E-score” value is 0.17.

With GGAATTAA, the “PBM E-score” value worked out at 0.208.

Take GGTCAGAA: the “PBM E-score” value was -0.102.

For the sequence CCGGAAAC, the “PBM E-score” value was determined as 0.125.

Consider CATACAAG, for which the “PBM E-score” value was -0.25.

For the sequence AGGCTTGG, the “PBM E-score” value is -0.0528.

As for AACCCGCA, the “PBM E-score” value is -0.14.
